Measured values as given in PubChem BioAssay AID1347075 (National Center for Advancing Translational Sciences (NCATS), 2019).
In all, about 400,000 compounds went through this assay and about 5,500 (1.4%) were called active. Inconclusive results, whose numbers are uncertain, are shown with a selection of clear calls. Calls come from the whole dose curve; as a rule, active = well fitted cell-killing curve with a large enough effect; inconclusive = small, poorly fitted or top-dose-only effect, or effect the other way; inactive = flat fitted curve, though single readings scatter. Potencies of inconclusive entries are doubtful fits and often do not repeat.
Potency is the fitted concentration of half-maximal effect.

Assay: qHTS assay for MDR1-selective chemotherapeutics: Primary screen using the parental adenocarcinoma cell KB-3-1; note: nearly all actives have a fitted effect of over 60% in size
Details: KB-3-1 viability, CellTiter-Glo ATP luminescence, 72 h; series mostly up to 46.1 µM
Procedure, shortened: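 KB-3-1 parental drug-naive adenocarcinoma cells in DMEM/10% FBS, incubated 72 h at 37 C with pin-transferred compounds across a concentration series. Viability by CellTiter-Glo luminescence; concentration-response curves fitted after normalization.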
With `Cc1ccc(-n2c(C)cc(C(=O)COC(=O)c3c(C)noc3C)c2C)cc1` the Potency was active: 18.4 µM.
With `O=C(Nc1cccc2c1[nH]c1ccccc12)C(F)(F)F` the Potency was inconclusive: 20.6 µM [rising, partial curve, poor fit].
With `CCCc1nc2sc3c(c2c(=O)n1NC(=O)CCCl)CCCC3` the Potency was active: 23.1 µM.
With `CCCc1cc(=O)[nH]c(SCC(=O)Nc2sccc2C#N)n1` the Potency was “inactive”.
With `O=C(Nc1ccc(OCC(=O)N2CCOCC2)cc1)c1cncc(Br)c1` the Potency was inconclusive: 29.1 µM [rising, single point].
With `NC1=NC[C@H](CC2CCCCC2)N1CCc1cc(C(F)(F)F)cc(C(F)(F)F)c1` the Potency was inconclusive: 18.4 µM [cytotoxic, single point].
With `CCOC(=O)Nc1cc(=O)c2ccccc2o1` the Potency was inconclusive: 3.26 µM [cytotoxic, full curve].
With `COc1ccc(S(=O)(=O)NCCCCOc2ccc(Cl)cc2)cc1` the Potency was inconclusive: 29.1 µM [cytotoxic, single point].
For `Cc1ccccc1CN1[C@@H]2c3ccccc3C[C@@H]2OCCS1(=O)=O`, the Potency was inconclusive: 0.0065 µM [rising, full curve, poor fit].
In the case of `CCOC(=O)/C(=C\c1ccc(Cl)cc1)c1nc2sc(C)c(C)c2c(=O)[nH]1`, the Potency was inconclusive: 18.4 µM [cytotoxic, single point].
In the case of `Cc1cc(C)n(CC(=O)N/N=C/c2cc(Br)cc([N+](=O)[O-])c2O)n1`, the Potency was “inactive”.
For `O=C(NCc1cccc(Cl)c1)c1cccc(OC2CCN(C(=O)C3CC3)CC2)c1`, the Potency was active: 23.1 µM.
With `CCOCCCNCc1cc(Br)ccc1OCc1ccccc1` the Potency was inconclusive: 29.1 µM [cytotoxic, partial curve, poor fit].
For `COc1ccc(O)c(/C=N/Nc2nc(Nc3ccccc3)nc(-n3nc(C)cc3C)n2)c1`, the Potency was active: 14.6 µM.
With `CCOC(=O)c1cc2ccccc2n1C1CCN(CCc2ccccc2)CC1` the Potency was inconclusive: 29.1 µM [cytotoxic, single point].
For `COc1ccccc1N1CCN(C(=O)c2ccc(-c3ccc(Cl)cc3)o2)CC1`, the Potency was active: 4.61 µM.
For `CC1CCc2cc(F)ccc2N1C(=O)CCl` (stereo not given), the Potency was inconclusive: 29.1 µM [cytotoxic, single point].
With `CCOP(=O)(OCC)c1nc(-c2cccc3ccccc23)oc1NCc1ccccc1` the Potency was “inactive”.
For `Cc1csc(N=Nc2ccc(N(C)C)cc2)[n+]1[O-]`, the Potency was inconclusive: 23.1 µM [cytotoxic, single point].
For `CCn1nc(C(=O)NNC(=O)c2cc(Cl)ccc2OC)c2ccccc2c1=O`, the Potency was inconclusive: 25.9 µM [cytotoxic, single point].
